In patent US20240376185A1:
No constants are given. Whether binding was seen depends on the method and setting. Some results given as binding are weak or reduced against the parent protein; the word gives no strength.

Protein sequences, listed by entry. Tags and fused reporters are not part of them. Residues count along the entry.
UniProt P35747, residues 25-607: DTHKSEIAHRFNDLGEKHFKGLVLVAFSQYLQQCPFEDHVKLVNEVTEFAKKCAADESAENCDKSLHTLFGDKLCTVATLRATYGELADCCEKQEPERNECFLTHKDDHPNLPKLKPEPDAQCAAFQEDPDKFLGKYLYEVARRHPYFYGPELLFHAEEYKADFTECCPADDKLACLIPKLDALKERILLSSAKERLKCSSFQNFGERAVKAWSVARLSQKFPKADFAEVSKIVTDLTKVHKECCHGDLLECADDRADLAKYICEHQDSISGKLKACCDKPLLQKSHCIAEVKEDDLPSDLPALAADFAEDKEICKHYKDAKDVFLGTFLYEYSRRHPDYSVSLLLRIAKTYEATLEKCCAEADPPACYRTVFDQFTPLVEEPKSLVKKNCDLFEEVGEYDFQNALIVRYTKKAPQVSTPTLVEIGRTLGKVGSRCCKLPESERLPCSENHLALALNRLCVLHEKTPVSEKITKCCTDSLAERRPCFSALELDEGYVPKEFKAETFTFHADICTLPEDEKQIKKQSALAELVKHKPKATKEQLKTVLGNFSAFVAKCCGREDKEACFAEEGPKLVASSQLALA
UniProt P49822, residues 25-608: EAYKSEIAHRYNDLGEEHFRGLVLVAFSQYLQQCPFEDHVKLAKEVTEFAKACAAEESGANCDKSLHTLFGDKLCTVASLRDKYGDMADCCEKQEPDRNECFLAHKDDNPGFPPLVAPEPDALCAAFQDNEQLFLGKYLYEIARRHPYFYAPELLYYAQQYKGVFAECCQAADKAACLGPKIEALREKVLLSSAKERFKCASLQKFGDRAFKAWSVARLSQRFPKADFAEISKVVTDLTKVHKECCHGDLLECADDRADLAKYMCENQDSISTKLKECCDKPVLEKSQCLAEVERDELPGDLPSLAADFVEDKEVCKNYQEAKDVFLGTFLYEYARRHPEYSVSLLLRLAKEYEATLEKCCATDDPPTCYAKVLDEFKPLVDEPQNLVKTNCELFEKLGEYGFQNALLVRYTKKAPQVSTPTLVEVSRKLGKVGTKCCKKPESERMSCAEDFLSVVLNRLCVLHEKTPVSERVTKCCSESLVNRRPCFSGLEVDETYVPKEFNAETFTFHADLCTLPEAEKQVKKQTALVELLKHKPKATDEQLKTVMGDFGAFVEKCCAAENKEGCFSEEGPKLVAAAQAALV

Assays:
[1] = target: horse serum albumin (horse) (UniProt P35747); assay: ELISA, E. coli supernatant
dog serum albumin (dog) = dog serum albumin (dog) (UniProt P49822); assay: ELISA, E. coli supernatant

B1: SVA06 (VHH)
VHH: QVQLQESGGRLVQAEDSLRLSCAASGRTFVSYDMGWFRQAPGKEREFVAAINWRGYTTDYVDSVKGRFFISRDIAKSTVYLQMNNLKPEDTAVYYCAARQMSGSSRYSPPGRVGYDFWGQGTQVTVSS
binding [1]: binds | binding (dog serum albumin (dog)): binds
